PMC11585782, “The Plastidial Protein Acetyltransferase GNAT1 Forms a Complex With GNAT2, yet Their Interaction Is Dispensable for State Transitions” (Molecular & Cellular Proteomics : MCP, 2024)
These are yes or no findings as the source states them, for the method shown. Binding seen in cells or lysates may run through a third protein. Here binding means that the protein was enriched with, or labelled near, the bait; the list need not be complete. Sequences can lack the tags named with a protein.

T1: GNAT1-GFP (Arabidopsis thaliana) (UniProt Q9C666)
T1 sequence: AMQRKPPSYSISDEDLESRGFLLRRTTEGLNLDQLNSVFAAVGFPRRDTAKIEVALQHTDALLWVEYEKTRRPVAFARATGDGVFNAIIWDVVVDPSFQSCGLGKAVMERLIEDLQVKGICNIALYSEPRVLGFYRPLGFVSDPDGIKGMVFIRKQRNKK


biological target: T1, GNAT1-GFP (Arabidopsis thaliana); assay: affinity purification with mass spectrometry; GFP-Trap A beads with 2 mg leaf protein of GNAT1-, GNAT2- or GNAT3-GFP overexpressing Arabidopsis lines, 2 h at 4 °C; extraction buffer 50 mM HEPES-KOH pH 7.5, 150 mM NaCl, 10% glycerol, 2 mM EDTA, 5 mM DTT, 0.5% Triton X-100; label-free quantification against a chloroplast-targeted GFP control line; four biological replicates

Binder	binding
SVR3 (protein, UniProt F4K410 59-675) SASPSTAEPASEVKKKQLDRRDNVRNIAIVAHVDHGKTTLVDSMLRQAKVFRDNQVMQERIMDSNDLERERGITILSKNTSITYKNTKVNIIDTPGHSDFGGEVERVLNMVDGVLLVVDSVEGPMPQTRFVLKKALEFGHAVVVVVNKIDRPSARPEFVVNSTFELFIELNATDEQCDFQAIYASGIKGKAGLSPDDLAEDLGPLFEAIIRCVPGPNIEKDGALQMLATNIEYDEHKGRIAIGRLHAGVLRKGMDVRVCTSEDSCRFARVSELFVYEKFYRVPTDSVEAGDICAVCGIDNIQIGETIADKVHGKPLPTIKVEEPTVKMSFSVNTSPFSGREGKYVTSRNLRDRLNRELERNLAMKVEDGETADTFIVSGRGTLHITILIENMRREGYEFMVGPPKVINKRVNDKLLEPYEIATVEVPEAHMGPVVELLGKRRGQMFDMQGVGSEGTTFLRYKIPTRGLLGLRNAILTASRGTAILNTVFDSYGPWAGDISTRDLGSLVAFEDGTSTSYALASAQERGQMFVGSGVDVYKGQIVGIHQRPGDLGLNICKKKAATNIRSNKDVTVILDTPLTYSLDDCIEYIEEDELVEVTPSSIRMCKNQKMAKKGRQ	binds
LHCB4.3 (protein, UniProt Q9S7W1 30-276) RFGFSFGKKKPAPPPKKSRQVQDDGDRLVWFPGANPPEWLDGSMIGDRGFDPFGLGKPAEYLQYDFDGLDQNLAKNVAGDIIGIIQESSEIKPTPFQPYTEVFGIQRFRECELIHGRWAMLGTLGAIAVEALTGIAWQDAGKVELVEGSSYLGQPLPFSLTTLIWIEVLVVGYIEFQRNSELDPEKRIYPGGYFDPLGLAADPEKLDTLKLAEIKHSRLAMVAFLIFALQAAFTGKGPVSFLATFNN	binds
ATP sulfurylase APS1 (enzyme, UniProt Q9LIK9 49-463) GLIAPDGGKLVELIVEEPKRREKKHEAADLPRVELTAIDLQWMHVLSEGWASPLGGFMRESEFLQTLHFNSLRLDDGSVVNMSVPIVLAIDDEQKARIGESTRVALFNSDGNPVAILSDIEIYKHPKEERIARTWGTTAPGLPYVDEAITNAGNWLIGGDLEVLEPVKYNDGLDRFRLSPAELRKELEKRNADAVFAFQLRNPVHNGHALLMTDTRRRLLEMGYKNPILLLHPLGGFTKADDVPLDWRMKQHEKVLEDGVLDPETTVVSIFPSPMHYAGPTEVQWHAKARINAGANFYIVGRDPAGMGHPVEKRDLYDADHGKKVLSMAPGLERLNILPFRVAAYDKTQGKMAFFDPSRPQDFLFISGTKMRTLAKNNENPPDGFMCPGGWKVLVDYYESLTPAGNGRLPEVVPV	binds
RPL16 (protein, UniProt P56793 1-135) MLSPKRTRFRKQHRGRLKGISSRGNRICFGRYALQTLEPAWITSRQIEAGRRAMTRNVRRGGKIWVRIFPDKPVTVRPAETRMGSGKGSPEYWVAVVKPGKILYEMGGVPENIARKAISIAASKMPIKTQFIISE	binds
ATP sulfurylase APS4 (enzyme, UniProt Q9S7D8 52-469) GLIEPDGGKLMNLVVEESRRRVMKHEAETVPARIKLNRVDLEWVHVLSEGWASPLKGFMRQSEFLQTLHFNSFRLEDGSVVNMSVPIVLAIDDDQKFRIGDSNQVTLVDSVGNPIAILNDIEIYKHPKEERIARTWGTTARGLPYAEEAITKAGNWLIGGDLQVLEPIKYNDGLDRFRLSPSQLREEFIRRGADAVFAFQLRNPVHNGHALLMTDTRRRLLEMGYKNPVLLLNPLGGFTKADDVPLSWRMRQHEKVLEDGVLDPETTVVSIFPSPMLYAGPTEVQWHAKARINAGANFYIVGRDPAGMGHPTEKRDLYDADHGKKVLSMAPGLERLNILPFKVAAYDKTQGKMAFFDPSRSQDFLFISGTKMRGLAKKKENPPDGFMCPSGWKVLVDYYDSLSAETGNGRVSEAVASA	binds
HCF136 (protein, UniProt O82660 79-403) DEQLSEWERVFLPIDPGVVLLDIAFVPDEPSRGFLLGTRQTLLETKDGGSTWNPRSIPSAEEEDFNYRFNSISFKGKEGWIIGKPAILLYTADAGENWDRIPLSSQLPGDMVFIKATEDKSAEMVTDEGAIYVTSNRGYNWKAAIQETVSATLNRTVSSGISGASYYTGTFSAVNRSPDGRYVAVSSRGNFFLTWEPGQPYWQPHNRAVARRIQNMGWRADGGLWLLVRGGGLYLSKGTGITEEFEEVPVQSRGFGILDVGYRSEEEAWAAGGSGILLRTRNGGKSWNRDKAADNIAANLYAVKFVDDKKGFVLGNDGVLLRYVG	binds
ATP sulfurylase APS2 (enzyme, UniProt Q43870 57-476) KMTVKSSLIDPDGGELVELIVPETEIGVKKAESETMPKVKLNQIDLEWVHVISEGWASPLKGFMREDEYLQSLHFNSLRLKNGTFVNMSLPIVLAIDDDTKEQIGSSENVALVCPQGDIIGSLRSVEIYKHNKEERIARTWGTTSPGLPYVEEYITPSGNWLIGGDLEVFEPIKYNDGLDHYRLSPKQLREEFDNRQADAVFAFQLRNPVHNGHALLMNDTRKRLLEMGYKNPVLLLHPLGGFTKADDVPLDVRMEQHSKVLEDGVLDPKTTIVSIFPSPMHYAGPTEVQWHAKARINAGANFYIVGRDPAGMGHPTEKRDLYDPDHGKRVLSMAPGLEKLNILPFRVAAYDTIEKKMAFFDPSRAKEFLFISGTKMRTYARTGENPPDGFMCPSGWNVLVKYYESLQESEAKQQAVVSA	binds

Results, then the binder that gave them:

binding	Binder
binds	RNA Polymerase subunit Alpha (protein, UniProt P56762 1-329) MVREKVKVSTRTLQWKCVESKRDSKRLYYGRFILSPLMKGQADTIGIAMRRALLGEIEGTCITRAKSENIPHDYSNIAGIQESVHEILMNLNEIVLRSNLYGTRNALICVQGPGYITARDIILPPAVEIIDNTQHIATLTEPIDLCIELKIERNRGYSLKMSNNFEDRSYPIDAVFMPVENANHSIHSYGNGNEKQEILFLEIWTNGSLTPKEALHQASRNLINLFIPFLHVEEETFYLENNQHQVTLPFFPFHNRLVNLRKKKKTKELAFQYIFIDQLELPPRIYNCLKKSNIHTLLDLLNNSQEDLIKIEHFHVEDVKKILDILEKK
binds	CRR41 (protein, UniProt Q9C685 39-211) CSSNPESKDQFINLTPAPESINTTSAEKFPIEKRRRSEIIRDRTQRGIEKPEPPNFEIGWKRTKEINLEKPKGYVIMDFLEKFEALMAREFGSKELLAKAGEIVAERAREEAEVLRDEGKVEERMVTELFRVLKLMEMDLAMVKASVKDETLSQRIEQARARCRQAILVANSF
binds	6-Phosphogluconate Dehydrogenase PGD1 (enzyme, UniProt Q9SH69 1-487) MESAALSRIGLAGLAVMGQNLALNIAEKGFPISVYNRTTSKVDETLDRAAVEGNLPVSGQYSPRDFVLSIQRPRSLIILVKAGAPVDQTIDAFSEYMEPGDCIIDGGNEWYQNTERRISEAEQKGLLYLGMGVSGGEEGARNGPSLMPGGSFQAYDNIKDILEKVAAQVEDGPCVTYIGEGGSGNFVKMVHNGIEYGDMQLISEAYDVLKNVGGLSNEELAEIFTEWNSGELESFLVEITSDIFRVKDEFGDGELVDKILDKTGMKGTGKWTVQQAAELSVAAPTIAASLDCRYLSGLKDERENAAKVLREAGLKEEIGSASSGIDKKRLVDDVRQALYASKICSYAQGMNLLRAKSLEKSWNLNFGELARIWKGGCIIRAVFLDRIKKAYQRNPDLASLVVDPEFAKEMVQRQAAWRRVVGLAVSAGISTPGMCASLAYFDTYRRARLPANLVQAQRDLFGAHTYERTDRPGAYHTEWTKLARKNH
binds	6-Phosphogluconate Dehydrogenase PGD3 (enzyme, UniProt Q9FFR3 1-487) MESVALSRIGLAGLAVMGQNLALNIADKGFPISVYNRTTSKVDETLDRASNEGKLPVAGQYSPRDFVLSIQRPRSVIILVKAGAPVDQTISALSEYMEPGDCIIDGGNEWYQNTERRIVEAEKKGLLYLGMGVSGGEEGARNGPSLMPGGSFTAYNNVKDILEKVAAQVEDGPCVTYIGEGGSGNFVKMVHNGIEYGDMQLISEAYDVLKNVGGLSNDELAEIFTEWNRGELESFLVEITSDIFRVKDDYGDGELVDKILDKTGMKGTGKWTVQQAAELSVAAPTIAASLDCRYLSGLKDERENAAKVLEEAGLKEDIGSASRGVDKKRLIDDVRQALYASKICSYAQGMNLLRAKSLEKGWDLNLGEMARIWKGGCIIRAVFLDRIKKAYQRNPNLASLVVDPDFAKEMVQRQAAWRRVVGLAISAGISTPGMCASLAYFDTYRRARLPANLVQAQRDLFGAHTYERTDRPGAYHTEWTKLARKSQ
